Reference: PMC7367873, “Dissecting the sequence determinants for dephosphorylation by the catalytic subunits of phosphatases PP1 and PP2A” (Nature Communications, 2020)

Tested on: PP1c/PP2Ac holoenzyme formation
Test: Gel-filtration analysis of holoenzyme formation in HeLa Kyoto lysate
Type: binding, human
Details: Superdex 200 Increase 10/300, 1 µM phosphatase with HeLa Kyoto lysate; MW 30–700 kDa; carried out once

Substance | association with higher MW complexes / elution shift in gel filtration
PP1c: recombinant catalytic subunit of PP1 | only a very small fraction of PP1c potentially binding to regulators
PP2Ac: His-tagged recombinant PPP2CA ΔL309, purchased from Cayman Chemical | unassociated with higher MW complexes
